Test results from the supplement of paper PMC10060354, “Discovery of a small molecule ligand of FRS2 that inhibits invasion and tumor growth” (Cellular Oncology, 2022).
Many values rest on one well or one pass, so single values are uncertain.

Amino acid sequences for entries named in this document (tags omitted). A change or cut given only in a name is not applied to a line headed by its entry.
UniProt Q01105, whole entry: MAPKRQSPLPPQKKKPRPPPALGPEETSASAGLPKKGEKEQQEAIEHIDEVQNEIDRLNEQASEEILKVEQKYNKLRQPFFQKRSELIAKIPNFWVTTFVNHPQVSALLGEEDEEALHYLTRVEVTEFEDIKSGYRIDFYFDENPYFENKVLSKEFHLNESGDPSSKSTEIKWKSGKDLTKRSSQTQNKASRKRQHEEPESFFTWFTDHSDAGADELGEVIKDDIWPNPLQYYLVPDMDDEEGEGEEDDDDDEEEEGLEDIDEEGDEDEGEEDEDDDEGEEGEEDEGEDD
UniProt Q96D46: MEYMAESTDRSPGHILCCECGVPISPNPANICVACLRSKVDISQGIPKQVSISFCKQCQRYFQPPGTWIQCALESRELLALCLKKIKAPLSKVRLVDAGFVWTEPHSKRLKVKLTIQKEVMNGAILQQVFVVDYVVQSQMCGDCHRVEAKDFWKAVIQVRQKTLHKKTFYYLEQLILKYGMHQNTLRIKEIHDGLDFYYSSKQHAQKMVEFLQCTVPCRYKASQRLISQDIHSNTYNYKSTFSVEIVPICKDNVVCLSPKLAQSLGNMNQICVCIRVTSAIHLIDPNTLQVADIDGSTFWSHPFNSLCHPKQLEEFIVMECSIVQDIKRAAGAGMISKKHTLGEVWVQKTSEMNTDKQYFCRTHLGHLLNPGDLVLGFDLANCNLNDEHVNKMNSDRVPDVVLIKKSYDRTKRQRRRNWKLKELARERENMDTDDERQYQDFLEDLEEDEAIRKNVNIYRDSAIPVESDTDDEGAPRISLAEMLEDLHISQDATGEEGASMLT
UniProt Q6NW29: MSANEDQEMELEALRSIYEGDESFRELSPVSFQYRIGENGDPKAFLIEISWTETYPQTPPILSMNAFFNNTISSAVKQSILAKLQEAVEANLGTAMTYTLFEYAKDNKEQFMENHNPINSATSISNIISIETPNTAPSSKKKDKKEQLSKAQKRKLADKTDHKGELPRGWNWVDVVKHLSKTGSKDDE
UniProt P14635, whole entry: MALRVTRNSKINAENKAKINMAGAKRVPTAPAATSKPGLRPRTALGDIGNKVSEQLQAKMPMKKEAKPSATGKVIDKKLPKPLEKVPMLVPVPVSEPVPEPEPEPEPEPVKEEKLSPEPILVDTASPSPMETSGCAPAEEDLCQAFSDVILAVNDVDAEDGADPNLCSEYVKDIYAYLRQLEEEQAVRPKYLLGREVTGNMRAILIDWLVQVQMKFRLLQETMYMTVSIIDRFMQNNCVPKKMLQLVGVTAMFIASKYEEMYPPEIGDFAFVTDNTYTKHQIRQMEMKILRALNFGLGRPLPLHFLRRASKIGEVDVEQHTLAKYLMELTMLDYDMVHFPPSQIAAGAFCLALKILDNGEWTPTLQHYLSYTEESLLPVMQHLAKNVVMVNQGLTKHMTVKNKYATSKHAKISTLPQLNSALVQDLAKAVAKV
UniProt P37108: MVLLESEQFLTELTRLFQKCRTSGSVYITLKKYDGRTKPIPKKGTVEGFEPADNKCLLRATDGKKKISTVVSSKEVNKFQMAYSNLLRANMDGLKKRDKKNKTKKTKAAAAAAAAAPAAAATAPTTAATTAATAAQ
UniProt Q9Y2R0: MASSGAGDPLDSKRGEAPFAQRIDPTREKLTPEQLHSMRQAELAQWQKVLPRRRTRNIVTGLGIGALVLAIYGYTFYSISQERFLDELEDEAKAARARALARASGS
UniProt Q58WW2: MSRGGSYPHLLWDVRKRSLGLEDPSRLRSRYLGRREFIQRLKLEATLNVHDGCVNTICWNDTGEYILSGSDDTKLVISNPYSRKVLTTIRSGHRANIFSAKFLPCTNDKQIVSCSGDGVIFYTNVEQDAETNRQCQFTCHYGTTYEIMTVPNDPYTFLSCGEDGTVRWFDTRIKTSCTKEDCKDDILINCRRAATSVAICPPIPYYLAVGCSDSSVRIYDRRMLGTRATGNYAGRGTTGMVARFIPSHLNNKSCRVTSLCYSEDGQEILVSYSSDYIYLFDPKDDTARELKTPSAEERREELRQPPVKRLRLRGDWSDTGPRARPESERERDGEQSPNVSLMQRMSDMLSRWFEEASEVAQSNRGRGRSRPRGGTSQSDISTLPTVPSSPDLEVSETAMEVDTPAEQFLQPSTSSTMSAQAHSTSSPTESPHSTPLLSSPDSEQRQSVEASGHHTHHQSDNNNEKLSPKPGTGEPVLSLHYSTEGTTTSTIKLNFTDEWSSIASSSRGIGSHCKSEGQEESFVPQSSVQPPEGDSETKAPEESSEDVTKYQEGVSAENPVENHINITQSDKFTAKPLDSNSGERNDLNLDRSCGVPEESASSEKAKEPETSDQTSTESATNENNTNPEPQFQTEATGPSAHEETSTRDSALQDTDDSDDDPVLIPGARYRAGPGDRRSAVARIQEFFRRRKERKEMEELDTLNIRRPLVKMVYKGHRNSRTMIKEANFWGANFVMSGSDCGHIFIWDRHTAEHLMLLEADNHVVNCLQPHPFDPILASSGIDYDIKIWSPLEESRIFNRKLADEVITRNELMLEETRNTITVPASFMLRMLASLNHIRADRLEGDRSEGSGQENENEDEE
UniProt Q9P287, whole entry: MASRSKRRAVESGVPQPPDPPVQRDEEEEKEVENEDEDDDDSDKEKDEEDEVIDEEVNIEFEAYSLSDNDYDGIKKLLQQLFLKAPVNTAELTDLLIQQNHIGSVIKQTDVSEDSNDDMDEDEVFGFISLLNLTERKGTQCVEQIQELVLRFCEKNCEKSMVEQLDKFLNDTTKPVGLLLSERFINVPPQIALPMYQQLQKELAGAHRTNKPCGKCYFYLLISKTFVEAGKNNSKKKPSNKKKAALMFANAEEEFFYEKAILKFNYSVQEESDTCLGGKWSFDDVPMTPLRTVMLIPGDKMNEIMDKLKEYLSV
UniProt Q9H944: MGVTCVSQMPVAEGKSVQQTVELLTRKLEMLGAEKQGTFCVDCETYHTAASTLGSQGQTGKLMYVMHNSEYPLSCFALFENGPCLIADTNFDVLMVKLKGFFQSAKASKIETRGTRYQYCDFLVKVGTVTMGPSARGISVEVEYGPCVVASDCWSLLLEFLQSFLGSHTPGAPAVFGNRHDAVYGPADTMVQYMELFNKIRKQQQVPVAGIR
UniProt Q12887: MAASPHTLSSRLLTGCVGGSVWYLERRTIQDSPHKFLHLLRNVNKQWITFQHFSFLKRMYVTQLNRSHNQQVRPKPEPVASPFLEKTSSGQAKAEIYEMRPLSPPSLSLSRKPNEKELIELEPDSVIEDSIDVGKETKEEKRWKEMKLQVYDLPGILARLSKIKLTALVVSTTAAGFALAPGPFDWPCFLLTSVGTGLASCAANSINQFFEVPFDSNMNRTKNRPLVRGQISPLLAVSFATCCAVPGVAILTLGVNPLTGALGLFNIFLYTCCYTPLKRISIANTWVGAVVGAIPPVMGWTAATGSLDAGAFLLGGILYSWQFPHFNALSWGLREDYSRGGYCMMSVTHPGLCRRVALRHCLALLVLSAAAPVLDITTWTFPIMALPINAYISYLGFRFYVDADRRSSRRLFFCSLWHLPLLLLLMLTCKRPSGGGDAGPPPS
UniProt Q8ND76: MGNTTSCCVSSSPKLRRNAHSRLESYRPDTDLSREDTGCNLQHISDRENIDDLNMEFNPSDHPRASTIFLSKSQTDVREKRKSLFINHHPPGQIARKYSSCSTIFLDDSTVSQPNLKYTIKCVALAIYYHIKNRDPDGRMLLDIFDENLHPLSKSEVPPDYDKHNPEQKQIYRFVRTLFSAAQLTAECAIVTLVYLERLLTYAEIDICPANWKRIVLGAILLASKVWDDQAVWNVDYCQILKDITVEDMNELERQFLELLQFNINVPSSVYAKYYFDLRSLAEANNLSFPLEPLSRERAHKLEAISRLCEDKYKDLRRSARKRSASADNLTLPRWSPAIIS
UniProt Q9UDR5: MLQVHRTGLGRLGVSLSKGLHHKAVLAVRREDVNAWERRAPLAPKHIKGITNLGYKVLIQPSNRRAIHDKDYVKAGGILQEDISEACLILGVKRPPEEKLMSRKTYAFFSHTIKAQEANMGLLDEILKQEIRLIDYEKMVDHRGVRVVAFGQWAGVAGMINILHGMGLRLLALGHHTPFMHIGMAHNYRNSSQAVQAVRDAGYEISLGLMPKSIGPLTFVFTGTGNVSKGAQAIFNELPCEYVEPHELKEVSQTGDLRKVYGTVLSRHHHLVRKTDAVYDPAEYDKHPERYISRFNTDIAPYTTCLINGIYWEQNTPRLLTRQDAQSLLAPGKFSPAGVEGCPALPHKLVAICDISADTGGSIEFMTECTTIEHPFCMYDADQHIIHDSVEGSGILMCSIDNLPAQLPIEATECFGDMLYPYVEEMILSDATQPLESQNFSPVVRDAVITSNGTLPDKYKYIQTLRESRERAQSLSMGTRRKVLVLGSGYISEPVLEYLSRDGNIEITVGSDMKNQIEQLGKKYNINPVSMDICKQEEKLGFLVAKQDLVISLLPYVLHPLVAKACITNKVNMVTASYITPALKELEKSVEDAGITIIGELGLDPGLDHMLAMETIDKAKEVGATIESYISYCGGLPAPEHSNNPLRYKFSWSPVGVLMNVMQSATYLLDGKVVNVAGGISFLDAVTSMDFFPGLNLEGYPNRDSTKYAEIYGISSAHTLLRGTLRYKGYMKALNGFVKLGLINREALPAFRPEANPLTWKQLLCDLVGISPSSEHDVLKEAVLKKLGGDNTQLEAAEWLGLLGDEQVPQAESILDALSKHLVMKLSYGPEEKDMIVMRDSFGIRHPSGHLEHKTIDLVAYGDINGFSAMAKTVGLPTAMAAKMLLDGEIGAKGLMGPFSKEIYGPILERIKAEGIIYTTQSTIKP
UniProt Q9H8H2: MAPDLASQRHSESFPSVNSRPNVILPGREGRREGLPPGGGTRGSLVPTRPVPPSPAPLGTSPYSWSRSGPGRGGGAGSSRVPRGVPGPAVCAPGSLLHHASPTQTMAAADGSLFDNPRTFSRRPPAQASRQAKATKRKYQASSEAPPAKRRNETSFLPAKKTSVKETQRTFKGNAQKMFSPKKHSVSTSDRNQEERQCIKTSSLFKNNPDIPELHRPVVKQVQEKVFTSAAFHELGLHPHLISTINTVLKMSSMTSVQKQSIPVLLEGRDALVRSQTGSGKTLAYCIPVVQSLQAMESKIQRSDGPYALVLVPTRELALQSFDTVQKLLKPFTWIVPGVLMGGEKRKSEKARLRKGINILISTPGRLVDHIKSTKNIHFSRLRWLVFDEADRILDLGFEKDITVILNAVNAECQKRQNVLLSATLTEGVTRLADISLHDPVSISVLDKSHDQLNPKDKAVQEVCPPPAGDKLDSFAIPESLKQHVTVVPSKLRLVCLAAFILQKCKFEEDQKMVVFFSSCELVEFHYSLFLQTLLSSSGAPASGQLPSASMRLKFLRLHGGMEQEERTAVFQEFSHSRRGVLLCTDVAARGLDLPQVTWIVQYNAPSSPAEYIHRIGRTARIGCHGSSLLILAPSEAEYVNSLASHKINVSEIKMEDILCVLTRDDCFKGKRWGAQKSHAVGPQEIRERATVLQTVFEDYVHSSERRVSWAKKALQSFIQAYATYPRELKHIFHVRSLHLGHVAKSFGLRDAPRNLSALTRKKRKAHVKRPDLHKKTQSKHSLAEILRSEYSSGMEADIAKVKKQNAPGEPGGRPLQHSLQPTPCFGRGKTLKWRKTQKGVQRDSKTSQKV
UniProt P40692: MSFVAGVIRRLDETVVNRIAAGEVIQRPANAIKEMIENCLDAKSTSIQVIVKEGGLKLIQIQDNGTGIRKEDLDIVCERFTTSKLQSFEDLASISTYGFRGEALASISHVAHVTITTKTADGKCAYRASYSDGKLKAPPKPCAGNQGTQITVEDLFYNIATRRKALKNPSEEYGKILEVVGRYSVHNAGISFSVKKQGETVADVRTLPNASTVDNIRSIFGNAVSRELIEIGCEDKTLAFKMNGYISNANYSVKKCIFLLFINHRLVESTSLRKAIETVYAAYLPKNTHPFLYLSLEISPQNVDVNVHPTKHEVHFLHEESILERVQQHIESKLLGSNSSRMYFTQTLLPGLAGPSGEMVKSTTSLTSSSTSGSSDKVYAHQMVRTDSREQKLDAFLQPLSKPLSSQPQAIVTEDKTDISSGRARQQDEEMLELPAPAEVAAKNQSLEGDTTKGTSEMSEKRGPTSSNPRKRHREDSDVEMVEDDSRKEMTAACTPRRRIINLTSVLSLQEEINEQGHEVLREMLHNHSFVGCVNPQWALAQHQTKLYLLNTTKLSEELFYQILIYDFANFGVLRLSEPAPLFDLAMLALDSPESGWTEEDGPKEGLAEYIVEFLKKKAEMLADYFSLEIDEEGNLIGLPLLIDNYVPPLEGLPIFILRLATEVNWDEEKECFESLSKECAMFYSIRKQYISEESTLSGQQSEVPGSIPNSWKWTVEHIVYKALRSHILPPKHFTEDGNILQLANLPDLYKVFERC
UniProt Q86Y39, whole entry: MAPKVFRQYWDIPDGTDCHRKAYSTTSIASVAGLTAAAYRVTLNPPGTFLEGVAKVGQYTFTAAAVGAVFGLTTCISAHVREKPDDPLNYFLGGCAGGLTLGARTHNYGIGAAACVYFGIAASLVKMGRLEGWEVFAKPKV

Compound: [O-][N+](C(C1=C(C(O)=C2)NC(C(C=C3)=CC=C3Cl)C4C1C=CC4)=C2Cl)=O
Assay: melting temperature shift (compound 7 minus DMSO); higher = compound stabilises the protein
Conditions: 10 µM
Procedure: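 Thermal proteome profiling (TMT mass spectrometry) in intact DAOY medulloblastoma cells or DAOY lysates treated with 10 µM compound 7 or DMSO, heated at 10 temperatures from 40.5 to 73.8 °C for 3 min. Melting curves were fitted with the Bioconductor TPP package, and the melting point difference between compound and vehicle is reported per protein (single curve per condition).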

[1] = system: DAOY cell lysate, treatment time: 20 min, 4 °C
[2] = system: intact DAOY cells, treatment time: 90 min, 37 °C

Target	melting temperature shift [1] [°C]	melting temperature shift [2] [°C]
DYRK1A (UniProt Q13627)	-0.521	0.623
SET (UniProt Q01105)	-2.1	1.84
NMD3 (UniProt Q96D46)	-0.519	-1.32
KCTD9 (UniProt Q7L273)	-0.706	–
CTIF (UniProt O43310)	0.112	0.0288
UniProt Q56UQ5	–	1.01
DPH1 (UniProt Q9BZG8)	-0.718	-0.903
LMAN2 (UniProt Q12907)	-0.103	-1.07
CIT (UniProt O14578)	-0.389	0.0352
RWDD4 (UniProt Q6NW29)	0.0316	-1.25
POP1 (UniProt Q99575)	-0.174	-0.389
PLRG1 (UniProt O43660)	0.436	1.86
TRIOBP (UniProt Q9H2D6)	-1.15	–
UniProt Q8WXF7	3.94	0.414
CCNB1 (UniProt P14635)	-0.444	-0.136
SRP14 (UniProt P37108)	-0.0225	-0.407
NDRG1 (UniProt Q92597)	0.234	-0.645
PDIA3 (UniProt P30101)	0.486	0.628
UniProt Q9Y6M4	-0.608	2.43
UBE2S (UniProt Q16763)	-0.268	-0.373
UniProt Q9BPX7	-1.18	1.76
COA3 (UniProt Q9Y2R0)	2.22	–
UniProt P14678	-0.205	1.58
EMC4 (UniProt Q5J8M3)	0.359	-0.842

Fetched one by one from the list above, two records:
Target	melting temperature shift [1] [°C]	melting temperature shift [2] [°C]
DPH1 (UniProt Q9BZG8)	-0.718	-0.903
UniProt P14678	-0.205	1.58

Next part.

Target	melting temperature shift [1] [°C]	melting temperature shift [2] [°C]
UniProt Q8IWN7	–	-1.08
DCAF6 (UniProt Q58WW2)	0.0724	1.26
RAD1 (UniProt O60671)	–	-0.625
UniProt Q96M86	–	0.367
UniProt Q9NQW1	–	-3.9
PELO (UniProt Q9BRX2)	0.0433	-0.936
UniProt Q9BSC4	0.291	–
BCCIP (UniProt Q9P287)	-0.449	0.0192
MED20 (UniProt Q9H944)	-0.457	-0.667
NQO1 (UniProt P15559)	0.215	-0.361
UniProt Q12887	1.82	-0.954
UniProt Q8ND76	3.35	–
UniProt Q07817	2.03	-1.06
DYNC1LI2 (UniProt O43237)	-0.33	-0.412
UniProt P09211	-0.243	-0.341
PSMA6 (UniProt P60900)	-0.5	-0.177
UniProt Q9UDR5	0.711	-0.138
PDLIM1 (UniProt O00151)	-4.7	–
DDX31 (UniProt Q9H8H2)	1.36	–
TBC1D17 (UniProt Q9HA65)	-0.447	–
METAP2 (UniProt P50579)	-0.688	0.228
MLH1 (UniProt P40692)	-1.96	1.79
NDUFA11 (UniProt Q86Y39)	0.329	-0.432
